{
  "sequences": {"note": "Protein sequences, listed by entry. Tags and fused reporters are not part of them. Lines headed by an entry give the natural chain unless they say otherwise; changes in a name come on top.", "UniProt Q96C92": "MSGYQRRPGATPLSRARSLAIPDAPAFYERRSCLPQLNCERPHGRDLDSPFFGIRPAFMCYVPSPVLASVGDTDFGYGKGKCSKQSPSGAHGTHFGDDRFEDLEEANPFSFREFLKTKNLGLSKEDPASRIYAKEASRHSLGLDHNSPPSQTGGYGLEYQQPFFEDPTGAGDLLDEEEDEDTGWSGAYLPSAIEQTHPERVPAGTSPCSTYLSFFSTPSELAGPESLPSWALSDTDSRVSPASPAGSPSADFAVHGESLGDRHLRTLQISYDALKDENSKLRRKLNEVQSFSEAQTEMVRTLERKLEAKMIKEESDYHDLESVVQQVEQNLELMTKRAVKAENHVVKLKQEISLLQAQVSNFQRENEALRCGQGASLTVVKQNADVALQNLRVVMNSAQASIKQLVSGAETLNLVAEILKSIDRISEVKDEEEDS", "UniProt Q12923": "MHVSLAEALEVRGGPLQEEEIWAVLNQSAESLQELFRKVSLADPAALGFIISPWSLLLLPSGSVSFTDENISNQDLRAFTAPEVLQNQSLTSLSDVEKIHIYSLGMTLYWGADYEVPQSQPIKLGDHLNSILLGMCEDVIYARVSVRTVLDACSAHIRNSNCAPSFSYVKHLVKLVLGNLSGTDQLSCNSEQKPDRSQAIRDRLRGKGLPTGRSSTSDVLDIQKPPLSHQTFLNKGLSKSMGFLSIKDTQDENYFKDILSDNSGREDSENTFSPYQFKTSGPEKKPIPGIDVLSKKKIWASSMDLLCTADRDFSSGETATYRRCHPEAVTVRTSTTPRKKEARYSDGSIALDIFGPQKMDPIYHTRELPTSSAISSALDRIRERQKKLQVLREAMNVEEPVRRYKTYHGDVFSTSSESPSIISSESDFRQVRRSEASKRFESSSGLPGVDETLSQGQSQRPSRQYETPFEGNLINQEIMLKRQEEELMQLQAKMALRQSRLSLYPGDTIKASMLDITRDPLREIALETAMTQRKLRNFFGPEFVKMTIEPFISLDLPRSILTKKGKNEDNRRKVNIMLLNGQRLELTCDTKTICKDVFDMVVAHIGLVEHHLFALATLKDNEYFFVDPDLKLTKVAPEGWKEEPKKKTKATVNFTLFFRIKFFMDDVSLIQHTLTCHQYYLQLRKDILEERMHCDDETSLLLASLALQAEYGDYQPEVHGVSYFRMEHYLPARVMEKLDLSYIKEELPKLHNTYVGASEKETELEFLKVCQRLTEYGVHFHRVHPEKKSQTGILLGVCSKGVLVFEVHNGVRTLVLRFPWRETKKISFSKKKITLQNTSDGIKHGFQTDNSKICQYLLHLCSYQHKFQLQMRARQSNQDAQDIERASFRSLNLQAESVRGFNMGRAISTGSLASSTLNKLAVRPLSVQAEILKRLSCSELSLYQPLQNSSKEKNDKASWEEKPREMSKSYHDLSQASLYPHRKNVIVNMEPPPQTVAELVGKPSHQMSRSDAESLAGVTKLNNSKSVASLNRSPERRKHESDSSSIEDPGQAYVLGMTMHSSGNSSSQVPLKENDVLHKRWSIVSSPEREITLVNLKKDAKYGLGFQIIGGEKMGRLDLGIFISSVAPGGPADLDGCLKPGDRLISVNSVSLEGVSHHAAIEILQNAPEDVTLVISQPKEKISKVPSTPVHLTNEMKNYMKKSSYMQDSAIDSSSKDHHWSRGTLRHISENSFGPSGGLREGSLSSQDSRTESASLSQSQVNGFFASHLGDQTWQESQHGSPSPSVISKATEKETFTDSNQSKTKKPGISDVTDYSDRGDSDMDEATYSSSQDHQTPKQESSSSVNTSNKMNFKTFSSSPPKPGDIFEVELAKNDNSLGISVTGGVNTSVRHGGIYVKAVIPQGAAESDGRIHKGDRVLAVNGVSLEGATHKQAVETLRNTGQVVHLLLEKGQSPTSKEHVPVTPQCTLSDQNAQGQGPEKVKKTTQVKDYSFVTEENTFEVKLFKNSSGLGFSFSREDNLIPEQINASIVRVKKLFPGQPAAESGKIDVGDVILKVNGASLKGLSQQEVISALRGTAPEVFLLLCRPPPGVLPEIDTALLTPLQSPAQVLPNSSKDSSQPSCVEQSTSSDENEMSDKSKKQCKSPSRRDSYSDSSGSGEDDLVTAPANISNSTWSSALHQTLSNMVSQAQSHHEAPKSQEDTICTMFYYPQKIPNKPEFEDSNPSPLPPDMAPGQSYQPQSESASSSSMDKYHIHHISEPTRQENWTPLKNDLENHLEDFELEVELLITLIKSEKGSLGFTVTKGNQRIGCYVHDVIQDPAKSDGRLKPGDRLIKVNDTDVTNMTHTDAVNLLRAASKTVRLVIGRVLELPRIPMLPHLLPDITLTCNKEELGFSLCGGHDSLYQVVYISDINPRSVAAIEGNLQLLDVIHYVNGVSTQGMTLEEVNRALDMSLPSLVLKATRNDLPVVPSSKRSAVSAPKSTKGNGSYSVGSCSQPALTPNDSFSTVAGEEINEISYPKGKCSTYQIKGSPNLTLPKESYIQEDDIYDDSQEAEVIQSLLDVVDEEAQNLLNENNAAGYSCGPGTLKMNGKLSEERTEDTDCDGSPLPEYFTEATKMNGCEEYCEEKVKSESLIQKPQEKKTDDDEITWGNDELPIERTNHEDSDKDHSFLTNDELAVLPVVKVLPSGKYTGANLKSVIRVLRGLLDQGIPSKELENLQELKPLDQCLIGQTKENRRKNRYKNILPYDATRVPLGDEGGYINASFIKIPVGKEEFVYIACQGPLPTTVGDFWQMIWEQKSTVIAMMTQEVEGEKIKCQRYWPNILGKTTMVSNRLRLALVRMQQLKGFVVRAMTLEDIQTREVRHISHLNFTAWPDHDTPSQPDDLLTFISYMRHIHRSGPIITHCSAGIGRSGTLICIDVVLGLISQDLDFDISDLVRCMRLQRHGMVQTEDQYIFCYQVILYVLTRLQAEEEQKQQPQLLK"},
  "source": "paper PMC6629679",
  "key": {"GFP-ENTR1 E171A": {"molecular_target": "GFP-ENTR1 E171A (UniProt Q96C92)", "test": "co-IP; HeLa cells transfected with GFP-tagged ENTR1 constructs; GFP-Trap_A for 3 h at 4 °C in lysis buffer (50 mM HEPES pH 7.5, 150 mM NaCl, 1.5 mM MgCl2, 1 mM EDTA, 10% glycerol, 1% Triton X-100); western blot for endogenous PTPN13"}, "GFP-ENTR1 P167A": {"molecular_target": "GFP-ENTR1 P167A (UniProt Q96C92)", "test": "co-IP; HeLa cells transfected with GFP-tagged ENTR1 constructs; GFP-Trap_A for 3 h at 4 °C in lysis buffer (50 mM HEPES pH 7.5, 150 mM NaCl, 1.5 mM MgCl2, 1 mM EDTA, 10% glycerol, 1% Triton X-100); western blot for endogenous PTPN13"}},
  "note": "No constants are given. Whether binding was seen depends on the method and setting. Binding seen in cells or lysates may run through a third protein.",
  "data": [
    {"substance": "PTPN13, endogenous full-length (from UniProt Q12923 1-2485)", "values": [
      {"measurement": "binding", "setting": "GFP-ENTR1 E171A", "result": "no binding"},
      {"measurement": "binding", "setting": "GFP-ENTR1 P167A", "result": "no binding"}
    ]}
  ]
}
